Laboratory results: paper PMC4535883, “A Single-Strand Annealing Protein Clamps DNA to Detect and Secure Homology”

Biological target: T1, Redβ (single-strand annealing protein) (bacteriophage lambda) (UniProt P03698)
T1 sequence (looked up, limits assumed): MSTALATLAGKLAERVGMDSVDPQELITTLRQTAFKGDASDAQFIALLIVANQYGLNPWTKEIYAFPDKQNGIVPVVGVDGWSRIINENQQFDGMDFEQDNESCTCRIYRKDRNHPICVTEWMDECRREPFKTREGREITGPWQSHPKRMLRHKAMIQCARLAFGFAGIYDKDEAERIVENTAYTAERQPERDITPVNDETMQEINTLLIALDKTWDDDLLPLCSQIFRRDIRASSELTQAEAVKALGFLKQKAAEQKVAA
Assay: EMSA
Conditions: 1 nM ssDNA, broad smeared shift at 158 nM Redβ and above; optical tweezers at 29.2 °C; recombinant protein; label: Atto 565 (5'); single-stranded DNA

“CTTCCACTTTCATCGTCTTTCAGTTCTCTT [ssDNA PAGE 30 b]”: binds more weakly.

For at least one entry, the source does not settle the construct or the ends of the probe. Weaker means in comparison with the reference protein, sequence or condition of that experiment. Where a protein sequence is shown, tags need not be part of it.
